# Measurements from US20250250301A1, “DE NOVO DESIGNED BINDERS TARGETING HUMAN EPCAM AND PDL1 RECEPTORS” (University of Washington, priority 2022, published 2025).
# Results are given in words; binding and its absence hold for the method and conditions named. Some binding calls cover weakened binding; strength is not graded here.
# T1: human epithelial cell adhesion molecule (EpCAM) receptor, extracellular portion (human) (UniProt P16422)
# T1 sequence (looked up): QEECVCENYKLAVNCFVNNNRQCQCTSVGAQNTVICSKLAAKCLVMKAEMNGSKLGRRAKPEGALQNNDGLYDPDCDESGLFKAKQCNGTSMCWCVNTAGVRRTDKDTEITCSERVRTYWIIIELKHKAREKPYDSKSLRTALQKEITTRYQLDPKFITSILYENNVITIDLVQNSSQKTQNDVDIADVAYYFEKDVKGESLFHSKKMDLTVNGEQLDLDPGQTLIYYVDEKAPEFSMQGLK
# What was measured:
# [1] = molecular target: T1, human epithelial cell adhesion molecule (EpCAM) receptor, extracellular portion (human); test: Octet (BLI)
# [2] = molecular target: T1, human epithelial cell adhesion molecule (EpCAM) receptor, extracellular portion (human); test: Octet, target immobilized on the sensor, binder 20, 10, 5, 2.5, 1 and 0.5 nM, association to about 1000 s, dissociation to 1750 s
# [3] = molecular target: T1, human epithelial cell adhesion molecule (EpCAM) receptor, extracellular portion (human); test: yeast surface display screen
binding [1],binding [2],binding [3],Binder
binds,binds,,"gs linked dimer of EpCAMBind1_cterm_cys (designed binder, also called EpCAM1_dimer) DEERLRELVEELVKELGLSERYKRTLERHLRTALEQGYDEEQIRMNLEQLAQQAREIGGSGGSDEERLRELVEELVKELGLSERYKRTLERHLRTALEQGYDEEQIRMNLEQLAQQAREI"
,,binds,EpcamBind1 (designed binder) DEERLRELVEELVKELGLSERAKRMLEQFLRSALEQGFDEEQIRMALEQLAEQAREI
